Consider 46 molecules from the supplement of paper PMC8616043.

Each structure is given as a SMILES string. Structures can show the parent of a compound that is named as a salt. This is one part of the list. Repeats in this data set agree poorly, so a single value says little.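 PR50, a 50-repeat proline–arginine dipeptide protein from C9ORF72 (ALS/FTD), was expressed by transfection in U-2 OS human cells stably carrying a GFP sensor with import and classical export signals. Per-well nuclear-minus-cytoplasm GFP, normalized between in-plate DMSO (low) and PR-only (high), was scored versus other test wells; compounds well below zero were hits reversing PR.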

The subject of this assay is U-2 OS NCT-C biosensor cells expressing PR50. Briefly: Z-score of normalised NCT-C biosensor translocation index in PR50-expressing cells; higher = more nuclear biosensor (more disrupted nuclear export). Conditions: 3 µM; 24 h.
`O=C(NCc1cccnc1)c1ccc([N+](=O)[O-])o1`: the Z-score is inactive: 0.516. With `COc1ccc(-c2cc(=O)c3c(O)cc(O[C@@H]4O[C@H](CO[C@@H]5O[C@@H](C)[C@H](O)[C@@H](O)[C@H]5O)[C@@H](O)[C@H](O)[C@H]4O)cc3o2)cc1O` [Diosmin] the figure was inactive: -0.655; with `CCOC(=O)C1=C[C@]2(CC)CCCN3CCc4c(n1c1ccccc41)[C@@H]32` [Vinpocetine], inactive: -0.394.

Regarding `CCOC(=O)C1=C[C@]2(CC)CCCN3CCc4c(n1c1ccccc41)[C@@H]32` [Vinpocetin], the Z-score is inactive: -0.345. With `CCCCC(C)(O)C/C=C/[C@H]1[C@H](O)CC(=O)[C@@H]1CCCCCCC(=O)OC` (mixture of isomers) [Misoprostol] the figure was inactive: 0.44; with `CNCCC(Oc1ccccc1OC)c1ccccc1` (stereo unspecified) [Nisoxetine hydrochloride], inactive: -0.452. With `COc1cc(CCC(C)=O)ccc1O` [Vanillylacetone] the figure was inactive: -0.994; with `O=NN(CCCl)C(=O)NC1CCCCC1` [Lomustine], inactive: 0.332; with `CC(C)Cc1ccc(C(C)C(=O)O)cc1` (racemic) [(±)-Ibuprofen], inactive: -0.608. With `Cc1cccc(CN2CCN(C(c3ccccc3)c3ccc(Cl)cc3)CC2)c1` (stereo unspecified) [Meclizine Dihydrochloride] the figure was inactive: 0.0539. Consider `CCCCCCCCc1ccc(CCC(N)(CO)CO)cc1` [Fingolimod], for which the Z-score is inactive: 0.161. With `C[C@]12CC[C@@H]3c4ccc(O)cc4CC[C@H]3[C@@H]1CCC2=O` [Estrone] the figure was inactive: -0.224; with `CCNCc1nc2c(N)nc3ccccc3c2n1CC(C)(C)O` [Gardiquimod], inactive: 0.813; with `COc1ccc2cc1Oc1ccc(cc1)C[C@H]1c3cc(c(OC)cc3CCN1C)Oc1c(OC)c(OC)cc3c1[C@H](C2)N(C)CC3` [Tetrandrine], inactive: -0.0136.

Take `COc1cc(/C=C/c2ccccc2)oc(=O)c1` [5,6-Dehydrokawain]: the Z-score was inactive: -0.554. Regarding `CCC1=C(C)CN(C(=O)NCCc2ccc(S(=O)(=O)NC(=O)N[C@H]3CC[C@H](C)CC3)cc2)C1=O` [Glimepiride], the Z-score is inactive: -0.132.

Turning to `CCS(=O)(=O)CCn1c([N+](=O)[O-])cnc1C` [Tinidazole], the Z-score was inactive: -0.0829. With `O=C1CCc2cc(OCCCCc3nnnn3C3CCCCC3)ccc2N1` [Cilostazol] the figure was inactive: 1.88; with `O=P(O)(O)C(Cl)(Cl)P(=O)(O)O` [Clodronic acid], inactive: 0.181; with `CC[C@H]1OC(=O)[C@H](C)C(=O)[C@H](C)[C@@H](O[C@@H]2O[C@H](C)C[C@H](N(C)C)[C@H]2O)[C@](C)(OC)C[C@@H](C)C(=O)[C@H](C)[C@H]2N(CCCCn3cnc(-c4cccnc4)c3)C(=O)O[C@]12C` [Telithromycin], inactive: -0.0276.

Consider `COC(=O)[C@@H]1[C@H]2C[C@H]3c4[nH]c5ccccc5c4CCN3C[C@@H]2CC[C@@H]1O` [Yohimbine hydrochloride], for which the Z-score was inactive: 0.262. With `COC(=O)[C@@H]1[C@H]2C[C@H]3c4[nH]c5ccccc5c4CCN3C[C@@H]2CC[C@@H]1O` [Yohimbine·HCl] the figure was inactive: -0.777; with `C=C(C)[C@@H]1CC=C(C(=O)O)CC1` [Perillic acid], inactive: -0.413; with `C=C(C)[C@@H]1CC=C(C(=O)O)CC1` [(S)-(-)-Perillic acid], inactive: -0.304.

Turning to `Oc1c2ccccc2c2c3c(cccc13)N=N2`, the Z-score is inactive: -0.342. With `CC(C)C[C@H](NC(=O)[C@H]1O[C@@H]1C(=O)O)C(=O)NCCCCN=C(N)N` the figure was inactive: 0.422; with `CC1(C)NC(=O)N(c2ccc([N+](=O)[O-])c(C(F)(F)F)c2)C1=O` [Nilutamide], inactive: 0.332.

With `CC(C)NCC(O)COc1cccc2ccccc12` (stereo unspecified) [Propranolol·HCl], the Z-score is inactive: 0.47. Turning to `CCOc1ccccc1OCCN[C@H](C)Cc1ccc(OC)c(S(N)(=O)=O)c1` [Tamsulosin·HCl], the Z-score is inactive: 0.337. As for `Cn1c(-c2ccc3c(c2)OCO3)cc(=O)c2ccccc21` [Graveoline], the Z-score was inactive: 0.147.

For `O=S(=O)(O)CCS` [Mesna], the Z-score was inactive: 0.532. For the molecule `CCCCNC(=O)NS(=O)(=O)c1ccc(C)cc1` [Tolbutamide], the Z-score is inactive: -0.602. As to `O=C(O)c1cc(-c2ccc(F)cc2F)ccc1O` [Diflunisal], the Z-score was inactive: 0.241.

Consider `CCN1CC(CCN2CCOCC2)C(c2ccccc2)(c2ccccc2)C1=O` (stereo unspecified) [Doxapram·HCl H2O], for which the Z-score is inactive: 0.262. With `COc1ccc(-c2cc(=O)c3ccc(O)cc3o2)cc1` [Pratol] the figure was inactive: 0.805; with `CC(=O)N[C@H]1[C@H]([C@H](O)[C@H](O)CO)OC(C(=O)O)=C[C@@H]1NC(=N)N` [Zanamivir], inactive: 1.23. With `CCC(=O)O[C@]1(C(=O)CCl)[C@@H](C)C[C@H]2[C@@H]3C[C@H](F)C4=CC(=O)C=C[C@]4(C)[C@@]3(F)[C@@H](O)C[C@@]21C` [Halobetasol Propionate] the figure was inactive: 1.47; with `Cc1nc2n(c(=O)c1CCN1CCC(c3noc4cc(F)ccc34)CC1)CCCC2` [Risperidone], inactive: 0.868. With `CNCCC(Oc1ccc(C(F)(F)F)cc1)c1ccccc1` (stereo unspecified) [Fluoxetine·HCl] the figure was inactive: 0.789; with `CNCCC(Oc1ccc(C(F)(F)F)cc1)c1ccccc1` (stereo unspecified) [Fluoxetine hydrochloride], inactive: 0.104; with `O=c1oc2cc(O)ccc2c2oc3cc(O)ccc3c12` [Coumestrol], inactive: -0.917. Consider `N=C(N)NCCC[C@H](N)C(=O)O` [L-Arginine], for which the Z-score was inactive: -0.237. With `C[C@@H](CN1CC(=O)NC(=O)C1)N1CC(=O)NC(=O)C1` [Dexrazoxane] the figure was inactive: -0.334; with `OCc1cc(C(O)CNCCCCCCOCCCCc2ccccc2)ccc1O` (stereo unspecified) [Salmeterol], inactive: 0.678.

As to `Cc1cc(C2CCCCC2)n(O)c(=O)c1` [Ciclopirox], the Z-score is inactive: 0.536. With `COc1cc(C(=O)NS(=O)(=O)c2ccccc2C)ccc1Cc1cn(C)c2ccc(NC(=O)OC3CCCC3)cc12` [Zafirlukast] the figure was inactive: -0.0298.
